# Measured values as given in patent US4505897A (The Administrators of the Tulane Educational Fund, priority 1983, dated 1985).
# Experiment: general procedure: Boc solid-phase peptide synthesis; Boc-D-Trp-Merrifield resin (1% cross-linked)
# Conditions: whole synthesis, scale 0.5 mmol
substance,measurement,value
Nε-tert-butyloxycarbonyl-L-lysyl-O-benzyl-L-threonyl-L-prolyl-L-phenylalanyl-D-tryptophyl-NHNH2,crude mass,0.65 g
